Measured data: PubChem BioAssay AID504791 (Drosophila RNAi Screening Center, 2011)

- Assay: 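Genes of the fly required for silencing by miRNA, siRNA or endo-siRNA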 (primary screen)
- Cell system: Drosophila S2-derived reporter cells
- Knock-down reagent: long dsRNA against Drosophila genes, about 150-250 ng dsRNA per well (siRNA assay); about 80-120 ng (miRNA assay)
- Timing: about 5 days (siRNA assay); about 4 days (miRNA assay)
- Challenge: copper sulfate induction of reporters: 25 µM (siRNA assay); 200 mM stated (miRNA assay), 1-2 days before reading
- Read-out: 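Dual luciferase assay: Renilla to firefly signal ratio in each well, scaled to the mean ratio of its plate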
- Hit rule: 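a well was a first-pass pick when its plate-scaled ratio rose above 1.5 (siRNA assay) or 1.6 (miRNA assay), or dropped below 0.6; a gene counted only if two separate dsRNAs agreed on retest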
In all, the deposit lists about 23,000 reagents; below is a random part of those that have a named target and a result. In the full data, 199 (0.86%) are marked active. 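Plate-scaled ratios behind the calls are not deposited; printed light signals are raw; many rows marked increased or decreased are still called inactive.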 A number with no mark means an inactive call. The numbers tell different reagents against one gene apart. Not stated in the record: the direction of the score.

For ND-49 (NADH dehydrogenase (ubiquinone) 49 kDa subunit), how do the results read?
stable assay Renilla, run 1 (luminescence): 5903; stable assay firefly, run 1 (luminescence): 3.22e5

With CG11333, what was measured?
stable assay Renilla, run 1 (luminescence): 7622; stable assay firefly, run 1 (luminescence): 4.88e5

How did the screen score CG11726?
stable assay Renilla, run 1 (luminescence): 6407; stable assay firefly, run 1 (luminescence): 4.18e5

With CG13893, what does the deposit list?
stable assay Renilla, run 1 (luminescence): 6375; stable assay firefly, run 1 (luminescence): 3.30e5

What is on record for CG6136?
stable assay Renilla, run 1 (luminescence): 7604; stable assay firefly, run 1 (luminescence): 5.00e5

With CG7173 #1, how do the results read?
miRNA reporter change: reporter ratio lowered past the hit cutoff; stable assay Renilla, run 1 (luminescence): 6007; stable assay firefly, run 1 (luminescence): 2.14e5

Which result is listed for CG7173 #2?
stable assay Renilla, run 1 (luminescence): 4144; stable assay firefly, run 1 (luminescence): 3.39e5

How did the screen score Hexim (Hexamethylene bisacetamide inducible)?
stable assay Renilla, run 1 (luminescence): 8399; stable assay firefly, run 1 (luminescence): 4.63e5

What is on record for Herc4 (HECT and RLD domain containing E3 ubiquitin ligase 4)?
stable assay Renilla, run 1 (luminescence): 7498; stable assay firefly, run 1 (luminescence): 3.95e5

What did the screen give for CG5404?
stable assay Renilla, run 1 (luminescence): 4055; stable assay firefly, run 1 (luminescence): 4.75e5

What did the screen give for prd1 (pruning defect 1)?
stable assay Renilla, run 1 (luminescence): 5096; stable assay firefly, run 1 (luminescence): 2.93e5

Laid out differently: 4 of the entries above
| gene | dsRNA no. | miRNA reporter change | stable assay Renilla, run 1 (luminescence) | stable assay firefly, run 1 (luminescence) |
| --- | --- | --- | --- | --- |
| CG13893 | 1 | – | 6375 | 3.30e5 |
| CG6136 | 1 | – | 7604 | 5.00e5 |
| CG7173 | 1 | reporter ratio lowered past the hit cutoff | 6007 | 2.14e5 |
| CG7173 | 2 | – | 4144 | 3.39e5 |

Next records:
For CG2611, what does the deposit list?
stable assay Renilla, run 1 (luminescence): 1.09e5; stable assay firefly, run 1 (luminescence): 2.33e6

For Qsox3 (Quiescin sulfhydryl oxidase 3), what does the deposit list?
stable assay Renilla, run 1 (luminescence): 7545; stable assay firefly, run 1 (luminescence): 2.82e5

With APC10 (Anaphase Promoting Complex subunit 10), what does the deposit list?
stable assay Renilla, run 1 (luminescence): 5792; stable assay firefly, run 1 (luminescence): 3.01e5

With CG13082, how do the results read?
stable assay Renilla, run 1 (luminescence): 6471; stable assay firefly, run 1 (luminescence): 3.58e5

With CG8441, what was measured?
stable assay Renilla, run 1 (luminescence): 14643; stable assay firefly, run 1 (luminescence): 5.05e5

With CG14683, what was measured?
stable assay Renilla, run 1 (luminescence): 8052; stable assay firefly, run 1 (luminescence): 4.40e5

With Taf12L (TBP-associated factor 30kD subunit alpha-2), what does the deposit list?
stable assay Renilla, run 1 (luminescence): 8771; stable assay firefly, run 1 (luminescence): 6.47e5

What is on record for CG3817?
stable assay Renilla, run 1 (luminescence): 9047; stable assay firefly, run 1 (luminescence): 4.25e5

For CG13501, what does the deposit list?
stable assay Renilla, run 1 (luminescence): 6792; stable assay firefly, run 1 (luminescence): 3.35e5

What did the screen give for dve (defective proventriculus)?
stable assay Renilla, run 1 (luminescence): 7945; stable assay firefly, run 1 (luminescence): 5.78e5

What did the screen give for CG2577 #1?
miRNA reporter change: reporter ratio raised past the hit cutoff (active); stable assay Renilla, run 1 (luminescence): 4543; stable assay firefly, run 1 (luminescence): 4.18e5

What did the screen give for CG2577 #2?
stable assay Renilla, run 1 (luminescence): 4610; stable assay firefly, run 1 (luminescence): 4.14e5

What did the screen give for CG2577 #3?
miRNA reporter change: reporter ratio raised past the hit cutoff (active)

How did the screen score rn (rotund) #1?
stable assay Renilla, run 1 (luminescence): 5488; stable assay firefly, run 1 (luminescence): 2.18e5

For rn (rotund) #2, what does the deposit list?
stable assay Renilla, run 1 (luminescence): 6563; stable assay firefly, run 1 (luminescence): 4.21e5

How did the screen score rn (rotund) #3?
stable assay Renilla, run 1 (luminescence): 6703; stable assay firefly, run 1 (luminescence): 4.02e5

What did the screen give for rn (rotund) #4?
stable assay Renilla, run 1 (luminescence): 6439; stable assay firefly, run 1 (luminescence): 5.14e5

How did the screen score rn (rotund) #5?
stable assay Renilla, run 1 (luminescence): 8574; stable assay firefly, run 1 (luminescence): 4.19e5
